Results as given in the supplement of paper PMC12823440, “Inhibitors supercharge kinase turnover through native proteolytic circuits” (Nature, 2025).
The other results are listed elsewhere or left out. Hit calls seldom repeat between salt and free forms of one compound.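 Kinases, fused to nanoluciferase, were expressed in K562 cells; luminescence was measured every 4 h from 2 to 18 h as percent of control (DMSO = 100%, positive control = 0%). A time point is decreased if signal falls significantly (2 sigma). Hits were called by the authors by a rule that is not shown; the count of time points alone does not decide it.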

Protein sequences, listed by entry. Tags and fused reporters are not part of them. Lines headed by an entry give the natural chain unless they say otherwise; changes in a name come on top.
UniProt P50613: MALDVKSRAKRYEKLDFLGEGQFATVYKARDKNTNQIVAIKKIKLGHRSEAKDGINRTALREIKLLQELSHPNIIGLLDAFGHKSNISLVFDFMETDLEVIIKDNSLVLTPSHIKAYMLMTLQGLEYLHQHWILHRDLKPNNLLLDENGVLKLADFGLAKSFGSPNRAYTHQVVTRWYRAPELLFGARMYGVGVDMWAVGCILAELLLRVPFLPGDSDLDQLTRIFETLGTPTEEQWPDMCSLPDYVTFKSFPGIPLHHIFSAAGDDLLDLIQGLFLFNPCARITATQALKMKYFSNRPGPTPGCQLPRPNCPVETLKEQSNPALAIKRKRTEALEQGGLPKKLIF

target: CDK7 (UniProt P50613); experiment: number of time points (of 4; 2 h point missing) at which kinase-Nluc abundance scored as decreased, DMSO-normalised (count); higher = more persistent destabilization; conditions: K562; 2-18 h

Compound | number of time points
CC(C)n1ncnc1-c1cn2c(n1)-c1ccc(O[C@@H](C)C(N)=O)cc1OCC2 (10 µM) | 0
O=C(c1cccc(Cl)c1F)N1CCN(Cc2cccc(Nc3nccs3)n2)CC1 (2.5 µM) | 0
COc1cc(F)ccc1-c1ncnc(Nc2cccc(C[S@](C)(=N)=O)c2)n1 [Atuveciclib] (2.5 µM) | 1
Cc1cnc(NC(=O)c2cc(Oc3cnc(C(=O)N(C)C)nc3)c3cc(C)oc3c2)cn1 (10 µM) | 0
CC1=C(C(=O)Nc2cc3cn[nH]c3cc2F)C(c2ccc(C(F)(F)F)cc2)CC(=O)N1 (configuration not stated) (10 µM) | 0
NCC1CCC(CNc2nc(NCc3ccccc3OC(F)(F)F)ncc2[N+](=O)[O-])CC1 (configuration not stated) [PKC-theta inhibitor] (10 µM) | 2
O=C1Nc2ccc(I)cc2/C1=C/c1cc(Br)c(O)c(Br)c1 (10 µM) | 1
COc1cc(-c2oc3cc(O)cc(O)c3c(=O)c2O)ccc1O [Isorhamnetin] (10 µM) | 0
O=C1OC(/C=C/c2ccccc2)=NC/1=C\c1cccnc1 (10 µM) | 0
Cn1ncc(NC(=O)c2nc(-c3c(F)cccc3F)sc2N)c1N1CC[C@@H](N)[C@H](F)CC1 (10 µM) | 0
CNC(=O)CNc1cnc2ccc(-c3ccc(OC)c(OC)c3)cc2n1 (10 µM) | 0
CO[C@H]1C[C@@H]2CC[C@@H](C)[C@@](O)(O2)C(=O)C(=O)N2CCCC[C@H]2C(=O)O[C@H]([C@H](C)C[C@@H]2CC[C@@H](OCCO)[C@H](OC)C2)CC(=O)[C@H](C)/C=C(\C)[C@@H](O)[C@@H](OC)C(=O)[C@H](C)C[C@H](C)/C=C/C=C/C=C/1C [Everolimus] (10 µM) | 0
